Reference: PMC9935918

Chains of the proteins cited; added tags and fusions are not shown.
UniProt O95166: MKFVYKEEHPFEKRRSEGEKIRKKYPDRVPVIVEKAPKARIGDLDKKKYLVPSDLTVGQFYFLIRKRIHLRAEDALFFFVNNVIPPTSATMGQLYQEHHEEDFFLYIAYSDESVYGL
UniProt P60520: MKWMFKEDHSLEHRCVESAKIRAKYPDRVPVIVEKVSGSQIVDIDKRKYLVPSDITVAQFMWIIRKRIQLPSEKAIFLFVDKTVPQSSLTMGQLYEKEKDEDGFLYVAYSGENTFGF
UniProt Q15436: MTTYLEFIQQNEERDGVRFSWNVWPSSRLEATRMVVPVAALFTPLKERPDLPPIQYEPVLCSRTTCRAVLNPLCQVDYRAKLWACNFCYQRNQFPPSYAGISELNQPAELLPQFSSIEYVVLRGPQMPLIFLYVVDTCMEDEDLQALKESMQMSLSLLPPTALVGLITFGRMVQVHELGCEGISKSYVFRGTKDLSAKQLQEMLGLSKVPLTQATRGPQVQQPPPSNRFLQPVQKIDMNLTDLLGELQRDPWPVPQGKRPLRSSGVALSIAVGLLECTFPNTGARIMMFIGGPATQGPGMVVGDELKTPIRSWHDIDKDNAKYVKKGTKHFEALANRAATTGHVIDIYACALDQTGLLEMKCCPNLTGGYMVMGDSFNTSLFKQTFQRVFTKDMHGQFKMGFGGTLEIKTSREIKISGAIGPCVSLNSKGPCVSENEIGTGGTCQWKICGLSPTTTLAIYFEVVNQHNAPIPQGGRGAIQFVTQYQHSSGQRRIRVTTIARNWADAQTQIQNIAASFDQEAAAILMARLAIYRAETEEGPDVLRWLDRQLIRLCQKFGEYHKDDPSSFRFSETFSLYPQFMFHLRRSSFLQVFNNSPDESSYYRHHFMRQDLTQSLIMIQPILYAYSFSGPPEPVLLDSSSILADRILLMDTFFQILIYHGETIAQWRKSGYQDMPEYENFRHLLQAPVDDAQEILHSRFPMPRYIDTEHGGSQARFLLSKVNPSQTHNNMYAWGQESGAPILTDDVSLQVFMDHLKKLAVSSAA
UniProt P60468: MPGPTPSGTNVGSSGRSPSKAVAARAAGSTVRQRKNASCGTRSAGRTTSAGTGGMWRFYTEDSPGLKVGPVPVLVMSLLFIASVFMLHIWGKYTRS
UniProt Q9Y296: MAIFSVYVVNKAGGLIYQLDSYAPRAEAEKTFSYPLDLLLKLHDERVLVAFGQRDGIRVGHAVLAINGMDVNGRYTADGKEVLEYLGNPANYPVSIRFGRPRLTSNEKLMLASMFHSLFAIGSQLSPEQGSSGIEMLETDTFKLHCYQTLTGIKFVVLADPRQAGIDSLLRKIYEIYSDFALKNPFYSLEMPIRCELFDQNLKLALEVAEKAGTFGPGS
UniProt Q9Y2L5: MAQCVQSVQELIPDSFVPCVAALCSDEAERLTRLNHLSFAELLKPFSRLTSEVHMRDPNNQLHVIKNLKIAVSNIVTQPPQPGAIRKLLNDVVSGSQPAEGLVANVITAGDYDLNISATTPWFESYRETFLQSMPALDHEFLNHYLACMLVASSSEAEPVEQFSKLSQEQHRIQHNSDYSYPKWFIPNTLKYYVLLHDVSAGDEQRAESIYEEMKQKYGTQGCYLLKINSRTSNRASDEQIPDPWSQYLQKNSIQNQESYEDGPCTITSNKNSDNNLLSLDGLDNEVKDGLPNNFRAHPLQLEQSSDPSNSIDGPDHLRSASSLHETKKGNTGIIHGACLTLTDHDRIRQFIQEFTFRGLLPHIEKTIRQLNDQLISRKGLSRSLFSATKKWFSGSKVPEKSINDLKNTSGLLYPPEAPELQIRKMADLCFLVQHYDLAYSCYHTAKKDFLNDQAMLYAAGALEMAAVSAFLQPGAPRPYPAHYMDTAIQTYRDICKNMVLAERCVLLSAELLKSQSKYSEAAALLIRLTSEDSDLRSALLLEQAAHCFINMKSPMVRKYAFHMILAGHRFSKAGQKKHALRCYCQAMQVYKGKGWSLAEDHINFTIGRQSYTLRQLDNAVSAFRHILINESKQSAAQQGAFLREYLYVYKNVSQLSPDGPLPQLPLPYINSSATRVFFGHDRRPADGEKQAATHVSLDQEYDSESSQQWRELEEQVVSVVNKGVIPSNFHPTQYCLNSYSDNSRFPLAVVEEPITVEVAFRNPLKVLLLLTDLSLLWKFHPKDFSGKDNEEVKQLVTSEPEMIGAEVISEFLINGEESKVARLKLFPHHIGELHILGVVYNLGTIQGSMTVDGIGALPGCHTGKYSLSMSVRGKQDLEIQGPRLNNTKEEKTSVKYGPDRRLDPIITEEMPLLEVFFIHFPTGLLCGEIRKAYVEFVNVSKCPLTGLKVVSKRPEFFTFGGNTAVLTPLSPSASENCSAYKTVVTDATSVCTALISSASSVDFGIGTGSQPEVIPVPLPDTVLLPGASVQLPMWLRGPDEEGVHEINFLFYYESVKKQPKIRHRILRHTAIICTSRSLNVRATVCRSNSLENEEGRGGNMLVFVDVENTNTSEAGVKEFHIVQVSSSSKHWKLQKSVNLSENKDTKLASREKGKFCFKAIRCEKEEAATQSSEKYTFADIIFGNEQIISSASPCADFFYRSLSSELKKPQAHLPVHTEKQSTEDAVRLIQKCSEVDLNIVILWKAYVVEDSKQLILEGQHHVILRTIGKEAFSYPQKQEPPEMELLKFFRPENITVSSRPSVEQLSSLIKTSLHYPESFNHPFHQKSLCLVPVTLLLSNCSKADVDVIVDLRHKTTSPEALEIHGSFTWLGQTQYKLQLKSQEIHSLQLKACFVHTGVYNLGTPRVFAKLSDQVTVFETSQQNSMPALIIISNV
UniProt Q7Z392: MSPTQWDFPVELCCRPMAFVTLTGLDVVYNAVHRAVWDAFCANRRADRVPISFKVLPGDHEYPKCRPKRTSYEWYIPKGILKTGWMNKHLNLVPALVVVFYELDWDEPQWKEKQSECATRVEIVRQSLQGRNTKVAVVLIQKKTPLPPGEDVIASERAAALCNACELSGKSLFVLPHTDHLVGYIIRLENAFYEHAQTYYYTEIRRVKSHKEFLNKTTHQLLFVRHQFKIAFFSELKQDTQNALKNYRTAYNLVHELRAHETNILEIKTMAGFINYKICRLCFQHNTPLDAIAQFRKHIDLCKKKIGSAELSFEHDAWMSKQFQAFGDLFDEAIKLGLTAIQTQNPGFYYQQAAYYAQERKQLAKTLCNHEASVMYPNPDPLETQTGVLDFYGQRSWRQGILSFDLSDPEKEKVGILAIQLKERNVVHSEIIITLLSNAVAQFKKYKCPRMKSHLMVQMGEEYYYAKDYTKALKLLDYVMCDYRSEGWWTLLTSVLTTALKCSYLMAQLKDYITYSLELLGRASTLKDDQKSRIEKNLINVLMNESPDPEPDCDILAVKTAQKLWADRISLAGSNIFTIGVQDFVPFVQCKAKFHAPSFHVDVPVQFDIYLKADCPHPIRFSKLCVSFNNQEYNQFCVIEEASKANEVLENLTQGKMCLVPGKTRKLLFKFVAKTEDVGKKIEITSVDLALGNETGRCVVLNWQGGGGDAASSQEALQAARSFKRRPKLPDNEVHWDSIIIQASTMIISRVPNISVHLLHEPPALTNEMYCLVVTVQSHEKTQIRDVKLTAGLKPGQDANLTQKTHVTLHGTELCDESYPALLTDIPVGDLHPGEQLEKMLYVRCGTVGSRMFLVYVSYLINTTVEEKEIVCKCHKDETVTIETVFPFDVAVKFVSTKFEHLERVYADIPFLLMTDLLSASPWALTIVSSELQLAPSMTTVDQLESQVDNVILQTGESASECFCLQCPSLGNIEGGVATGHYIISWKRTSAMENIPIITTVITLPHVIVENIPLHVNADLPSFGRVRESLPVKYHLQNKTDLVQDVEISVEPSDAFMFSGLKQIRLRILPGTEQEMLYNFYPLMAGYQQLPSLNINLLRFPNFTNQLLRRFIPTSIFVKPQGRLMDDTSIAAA

target: T1, HA-TECPR2 WT (UniProt O15040); experiment: affinity purification with mass spectrometry; HA-TECPR2 WT or L440Rfs in TECPR2 MUT 293T cells; lysis in MCL-buffer (50 mM Tris pH 7.4, 150 mM NaCl, 0.5% NP40); HA agarose overnight 4 °C; elution with HA peptide; label-free quantification; controls: empty cells and HA-FIP200/RB1CC1
T1 sequence: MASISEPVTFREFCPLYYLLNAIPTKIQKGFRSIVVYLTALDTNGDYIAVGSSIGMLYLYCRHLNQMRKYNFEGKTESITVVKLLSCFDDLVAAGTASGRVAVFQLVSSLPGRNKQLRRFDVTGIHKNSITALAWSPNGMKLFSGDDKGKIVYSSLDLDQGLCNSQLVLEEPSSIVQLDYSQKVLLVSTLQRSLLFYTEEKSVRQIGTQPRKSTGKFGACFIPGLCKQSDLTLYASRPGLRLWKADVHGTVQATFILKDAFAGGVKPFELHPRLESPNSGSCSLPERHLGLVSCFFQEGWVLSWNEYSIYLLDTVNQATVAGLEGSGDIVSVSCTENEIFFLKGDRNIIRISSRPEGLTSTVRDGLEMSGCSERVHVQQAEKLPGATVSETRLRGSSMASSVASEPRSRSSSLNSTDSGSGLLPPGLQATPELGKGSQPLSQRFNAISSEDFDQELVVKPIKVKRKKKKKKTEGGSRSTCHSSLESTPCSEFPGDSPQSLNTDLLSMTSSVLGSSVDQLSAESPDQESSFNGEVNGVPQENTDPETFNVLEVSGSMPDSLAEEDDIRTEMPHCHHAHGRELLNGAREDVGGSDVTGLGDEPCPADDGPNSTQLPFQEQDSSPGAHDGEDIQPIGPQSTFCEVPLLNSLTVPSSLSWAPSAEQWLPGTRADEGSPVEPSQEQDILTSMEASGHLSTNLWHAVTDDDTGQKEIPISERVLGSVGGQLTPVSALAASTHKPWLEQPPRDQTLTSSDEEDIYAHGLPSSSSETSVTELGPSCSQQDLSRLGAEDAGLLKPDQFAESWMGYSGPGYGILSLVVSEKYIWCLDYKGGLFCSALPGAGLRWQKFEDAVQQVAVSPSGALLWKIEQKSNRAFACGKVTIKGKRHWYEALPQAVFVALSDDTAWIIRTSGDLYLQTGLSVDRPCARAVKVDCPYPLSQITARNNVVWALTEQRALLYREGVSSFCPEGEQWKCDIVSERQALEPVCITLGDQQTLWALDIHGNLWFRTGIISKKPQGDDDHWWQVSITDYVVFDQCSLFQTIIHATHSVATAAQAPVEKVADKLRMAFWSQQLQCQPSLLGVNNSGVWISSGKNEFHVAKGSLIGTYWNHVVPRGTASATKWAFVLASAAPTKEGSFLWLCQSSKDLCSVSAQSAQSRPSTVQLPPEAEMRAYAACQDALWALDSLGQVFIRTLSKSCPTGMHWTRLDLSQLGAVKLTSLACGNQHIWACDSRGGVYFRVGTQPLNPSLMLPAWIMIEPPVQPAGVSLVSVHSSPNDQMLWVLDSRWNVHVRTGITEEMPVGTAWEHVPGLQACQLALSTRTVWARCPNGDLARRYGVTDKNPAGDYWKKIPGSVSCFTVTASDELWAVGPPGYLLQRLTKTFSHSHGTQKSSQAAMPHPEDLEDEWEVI

binding, binds:
GABARAP (from UniProt O95166 1-117)
GABARAPL2 (from UniProt P60520 1-117)
SEC23A (from UniProt Q15436 1-765)
SEC61B (from UniProt P60468 1-96)
TRAPPC4 (from UniProt Q9Y296 1-219)
TRAPPC8 (from UniProt Q9Y2L5 1-1435)
TRAPPC11 (from UniProt Q7Z392 1-1133)

These are yes or no findings as the source states them, for the method shown. Binding seen in cells or lysates may run through a third protein. These calls come from enrichment with a bait or labelling near it, and not all partners need be listed. Sequences can lack the tags named with a protein.
